Results deposited as PubChem BioAssay AID602196 (INSERM, 2012).
Here is a random part of about 23,000 reagents. 455 of them (2%) count as active. 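Active includes both protection and sensitisation; some change values fall well beyond the stated -50 to +50 range.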 A number with no mark means an inactive call. Reagents against one gene are numbered here. Not all columns of the deposit are shown. Not given: the amount of reagent.

Assay: 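Genes whose knock-down alters cisplatin killing of lung cancer cells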
System: human A549 lung cancer cells
Knock-down reagent: siRNA pair against human genes
Time to read-out: 48 h transfection before cisplatin; time from cisplatin to read-out not stated
Challenge: cisplatin at a dose killing half of control-siRNA cells; exact dose and duration not given
Read-out: 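Cisplatin cell death as a shift from the 50% death seen with control siRNA; siRNAs toxic or growth-blocking alone scored 0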
Reading the numbers: two-siRNA summed score (-2 to +2): higher = both siRNAs protect from cisplatin killing; -2 means both sensitise
Active means: 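siRNAs harmful alone (LDH or WST-1) get 0; others get +1 for less and -1 for more cisplatin killing; genes are active when the two siRNAs give the same sign, summing to ±2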
Meaning of the calls: active = both siRNAs shift cisplatin killing the same way; inactive = no consistent shift, or siRNA harmful alone

two-siRNA summed score (-2 to +2), by target gene and reagent
LOC440433: #1 1
NRARP: #1 0
P2RX1: #1 0
DENND2C: #1 0
EXOSC10: #1 0
PCDH11X: #1 0
INSIG2: #1 0
UBR2: #1 0
ANKRD6: #1 1
RIMKLA: #1 0
FLJ32731: #1 0
LOC400736: #1 0
LOC400411: #1 0
CKAP2L: #1 0
LOC441766: #1 0
LOC442380: #1 0
RPS6KA6: #1 -1
LOC254027: #1 0
EIF4G3: #1 0
OSBPL2: #1 0; #2 0
SLITRK5: #1 0
DHX34: #1 0
PHC1: #1 -1

4 entries from above, sorted by “two-siRNA summed score (-2 to +2)”, high to low.
Target gene	reagent no.	two-siRNA summed score (-2 to +2)
LOC400736	1	0
LOC400411	1	0
CKAP2L	1	0
LOC441766	1	0

Next entries follow.
two-siRNA summed score (-2 to +2), by target gene and reagent
CDH8: #1 1
LOC54103: #1 0
TRAM1: #1 0
NXF3: #1 0
APLP1: #1 0
FABP2: #1 0
SPAG4: #1 0
TRIOBP: #1 0
ATP6V1E1: #1 0
DCUN1D4: #1 0
UNC45B: #1 0
LOC399866: #1 1
PTCH2: #1 0
CATSPER4: #1 1
LOC441065: #1 0
